Test results as given in patent US7223888B2, “Mu opioid receptor ligands: methods of use and synthesis” (President and Fellows of Harvard College, priority 2002, dated 2007).
For at least one compound, name, drawing or mass did not settle the structure.

By UniProt entry, the sequences of proteins in these tests, tags left out.
UniProt P41143, whole entry: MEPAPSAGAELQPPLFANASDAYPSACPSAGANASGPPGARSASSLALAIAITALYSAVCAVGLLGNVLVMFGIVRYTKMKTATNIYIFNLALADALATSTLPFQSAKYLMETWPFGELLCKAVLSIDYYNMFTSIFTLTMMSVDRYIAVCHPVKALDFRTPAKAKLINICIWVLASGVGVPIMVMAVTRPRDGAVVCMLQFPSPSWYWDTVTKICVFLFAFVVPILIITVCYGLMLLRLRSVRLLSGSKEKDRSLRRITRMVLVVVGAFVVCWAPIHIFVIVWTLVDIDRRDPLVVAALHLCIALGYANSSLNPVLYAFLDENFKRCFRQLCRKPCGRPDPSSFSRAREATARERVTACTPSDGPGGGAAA

Target: T1, hDOR-1 (Homo sapiens, UniProt P41143)
T1 construct: purchased Amersham Biosciences; host or cells: stably transfected HEK-293 cells (membrane preparation)
Experiment: Opioid receptor competitive binding assay, DOR
Conditions: Table 13; selectivity for MOR versus DOR (footnote: 3H-DPDPE, hDOR-1)
Procedure: For selected compounds, Ki for MOR, DOR, and KOR were determined according to the following procedure: Recombinant hMOR-1 membrane preps from stably transfected CHO cells and recombinant hDOR-1 membrane preps from stably transfected HEK-293 cells were purchased from Amersham Biosciences. Guinea pig cerebellum preparations were used for KOR assays.
Each microassay from an assay plate was filtered through an individual well of a Packard GF/B 96-well filter plate (glass fiber filter) to collect the membranes. Each well was washed twice with 200 μL of ice cold wash buffer (50 mM Tris, pH 7.4). The filter plate was allowed to dry overnight, the back was sealed, and Packard Bioscience Microscint PS scintillation fluid (75 μL) was added to each well, which was then counted for ^3H for 2 minutes using a Packard Bioscience TopCount scintillation counter plate reader.
Each compound was assayed at 8 concentrations, using half-log serial dilutions. Each concentration was tested in triplicate, and the ^3H cpm were averaged.
This concentration was determined experimentally by scintillation counting an aliquot of the radioligand stock solution used in the assay.
Kd=the binding constant for the radioligand.
This triplicate experiment was repeated three times for the MOR and twice for the DOR and the KOR.

Cc1cc(O)cc(C)c1CC(N)C(O)C/C=C/C(O)C(Cc1ccccc1)C(=O)NC(CO)Cc1ccccc1 [(S,S,S,R)-27]
Ki DOR/Ki MOR: 340
